Assay results taken from PubChem BioAssay AID686971 (National Center for Advancing Translational Sciences (NCATS), 2013).
The entries are a selection whose mix differs from that of the whole data set. Results filed as inconclusive are left out. Activity calls are given as the source filed them. The call rests on the fitted dose curve; in most records, active means well fitted cell-killing curve with a large enough effect; inconclusive means small, poorly fitted or top-dose-only effect, or effect the other way, or another doubt; inactive means no such curve, though single readings can be large or run the other way.

Test: qHTS for induction of synthetic lethality in tumor cells producing 2HG: qHTS for the HT-1080-IDH1KD cell line
Details: HT-1080 IDH1 knockdown viability, ATP luminescence, 48 h
Text: Unbiased genomic sequencing for 22 glioma genomes found recurrent mutation of IDH1 on chromosome 2q33, a gene encoding the cytosolic isoform of IIDH1 associated with the tri-carboxylic acid cycle (TCA) that catalyzes the oxidative decarboxylation of isocitrate, yielding alpha-ketoglutarate and CO2 via NADP+ to NADPH conversion. Subsequent studies confirmed the recurrent IDH mutations in up to 70% of secondary gliomas and in 10% of AML cases. […]
Suspensions of trypsinized HT-1080-IDH1KD cells were dispensed into white, tissue culture-treated, solid 1536-well plates at 5uL/well (750 cells/well final concentration) in RPMI medium supplemented with 5% FBS. […] The plates were measured on a PerkinElmer ViewLux plate reader for luminescent signal (clear filter, 1 sec exp.). […]
Concentration-response curves were fitted to the signals arising from the resulting luminescence. The concentration-effect curves were then classified based on curve quality (r2), response magnitude and degree of measured activity, and compounds were subsequently categorized based on their curve class.
Potency means the concentration at half of the fitted maximal effect.

SMILES	Potency
CCOC(=O)NC1CCc2cc(OC)c(OC)c(OC)c2-c2ccc(OC)c(=O)cc21 (stereo unspecified)	active: 8.2 nM
